# Library screening results

Results are given as percent effect.
The record does not define 0% and 100%; most values in the screen are far below 50% and negative numbers occur (in some assays of this library far below -100).
This is an unselected part of the compounds tested.
Two or more numbers in one place are separate tests of the same structure; such repeats can differ widely.

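Viability assay of Plasmodium falciparum sporozoites; the read-out is not stated. The concentration is filed as 10 mM, unlikely as a test dose, so the dose is not known. Direction is inferred from retests: higher values go with lower viability. Strong results were mostly tested again. About 34,000 compounds were tested under these conditions; 0.84% (about 280) showed 50% or more at least once.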

{"structure": "CCOc1ncccc1CNC(=O)c1c(C)oc(C)c1C", "percent effect": 8.162}
{"structure": "Cc1noc(C)c1-c1nc(N(C)CCN(C)C)ncc1-c1cnccn1", "percent effect": 2.466}
{"structure": "CCOC(=O)CCNC(=O)c1cc(Cl)cc2cccnc12", "percent effect": -3.542}
{"structure": "O=C(c1cnccn1)N1CCc2onc(Cn3cccn3)c2C1", "percent effect": 1.217}
{"structure": "O=C(C1CC1)N1CC2(CCNCC2)c2cc(F)ccc21.O=C(O)C(F)(F)F", "percent effect": 6.672}
{"structure": "O=C(c1ccc2nncn2c1)N1CCSC2(CCCCC2)C1", "percent effect": 10.01}
{"structure": "CCOC(=O)c1n[nH]cc1-c1cncn1CC(C)n1nc(C)cc1C", "stereo": "centres unmarked", "percent effect": 4.394}
{"structure": "CS(=O)(=O)N1CCc2sc(C(=O)NCc3ccccc3)cc21", "percent effect": -11.64}
{"structure": "Cc1cncc(C2CCN(Cc3ccncc3)CC2)n1", "percent effect": -3.337}
{"structure": "CCc1noc(CNCCn2cc(C)cn2)n1", "percent effect": 5.41}
{"structure": "Cc1cc(N2CCC3(CC2)C(C(=O)O)CC(=O)N3C)nc2ccccc12", "stereo": "centres unmarked", "percent effect": 6.923}
{"structure": "Cc1nc(C2CCCN2CCCS(N)(=O)=O)no1", "stereo": "centres unmarked", "percent effect": 16.25}
{"structure": "O=C(Nc1cc(F)ccc1OCC1CCCO1)c1ccccn1", "stereo": "centres unmarked", "percent effect": -17.34}
{"structure": "CNC(=O)c1ccc(C2CN(C(=O)COC)CCO2)nc1", "stereo": "centres unmarked", "percent effect": -16.96}
{"structure": "O=C(NCC1CC1)Nc1cnc2cc(Cl)ccc2c1O", "percent effect": -6.754}
{"structure": "COc1ccc(-c2nc(C3CCNCC3)cc3c2ncn3C)cc1.Cl.Cl", "percent effect": 9.114}
{"structure": "COC(=O)CCNC(=O)c1c[nH]cc1-c1cccc(OC)c1", "percent effect": 3.432}
{"structure": "NC(=O)c1cnn2c1NCC(CNCCCOc1ccccc1F)C2", "stereo": "centres unmarked", "percent effect": 1.979}
{"structure": "CN1CCCC1c1ccnc(-c2ccccc2)n1", "stereo": "centres unmarked", "percent effect": 8.44}
{"structure": "NCC1Cn2nnc(-c3cccc(F)c3)c2CO1", "stereo": "centres unmarked", "percent effect": -7.197}
{"structure": "CC(C)N1CCN(C(=O)Nc2cnn(CC(N)=O)c2)CC1", "percent effect": 19.65}
{"structure": "c1cncc(-c2noc(CN3CCCC(Cn4cncn4)C3)n2)c1", "stereo": "centres unmarked", "percent effect": "-26.53 & -22.7 & 7.394"}
{"structure": "COCC(=O)N1CCC(c2cccc(Cc3ccc(F)cc3)n2)CC1", "percent effect": -5.332}
{"structure": "O=C(O)C(F)(F)F.O=C(O)C(F)(F)F.O=C(O)C(F)(F)F.O=C(O)C(F)(F)F.[H][C@]12CC(Cn3cccn3)N(C)[C@@]1([H])CCN(Cc1ccccn1)C2", "stereo": "some centres unmarked", "percent effect": -4.566}
{"structure": "O=C1COC2(CCN(c3ccccn3)CC2)CN1Cc1ccccn1", "percent effect": -12.25}
{"structure": "Cc1ccc(N2CCCC(N3CCN(CC(F)F)CC3)C2=O)cc1", "stereo": "centres unmarked", "percent effect": 2.057}
{"structure": "O=C(O)C(F)(F)F.[H][C@@]12COC[C@]1(CNS(C)(=O)=O)CN(Cc1ccc3c(c1)OCO3)C2", "percent effect": -3.882}
{"structure": "Cc1cccc2[nH]cc(CC(=O)N3CCC(Nc4cccnn4)CC3)c12", "percent effect": 20.73}
{"structure": "Cc1cc(-c2ccnn2C)nc(C2CCCN(S(C)(=O)=O)C2)n1", "stereo": "centres unmarked", "percent effect": 8.296}
{"structure": "Cc1nc(C)n(CC2CCCCN2CC(=O)Nc2nnc(C)s2)n1", "stereo": "centres unmarked", "percent effect": 8.566}
{"structure": "Cn1ncc2c1CN(C(=O)Cc1ccccn1)CC2COCC1CC1.O=C(O)C(F)(F)F.O=C(O)C(F)(F)F", "stereo": "centres unmarked", "percent effect": 8.594}
{"structure": "CCN(CC1CCCO1)C(=O)Nc1ccc(F)cc1OC", "stereo": "centres unmarked", "percent effect": 10.61}
{"structure": "O=C(O)C(F)(F)F.[H][C@@]12CCN(CC3CCOCC3)[C@@]1([H])CCN2C(=O)c1ccc(C#N)cc1", "percent effect": 11.12}
{"structure": "CCc1ncc2c(n1)CN(CCCc1nc3ccccc3o1)CC2", "percent effect": 26.21}
{"structure": "Cc1cc(C)n(CC2CN(CC(=O)Nc3c(C)n[nH]c3C)CCO2)n1", "stereo": "centres unmarked", "percent effect": -0.3271}
{"structure": "CN1C(=O)CC(C(=O)O)C12CCN(Cc1ccc(F)cc1Cl)CC2", "stereo": "centres unmarked", "percent effect": -7.082}
{"structure": "CN(C(=O)c1ccc(OCC(F)F)nc1)c1ccc2c(c1)CCO2", "percent effect": 9.01}
{"structure": "CS(=O)(=O)N1CCCN(C(=O)c2ccc(Cn3ccccc3=O)o2)CC1", "percent effect": -0.7519}
{"structure": "O=C(O)C(F)(F)F.c1nc2c(c(C3CC3)n1)CCN(CC1CCOC1)CC2", "stereo": "centres unmarked", "percent effect": -0.4571}
{"structure": "CCC1CCC(CNC(=O)c2c[nH]c(=O)c(Cl)c2)CC1", "stereo": "centres unmarked", "percent effect": -17.89}
{"structure": "CN(C)Cc1cccc(C(=O)N2CCCC(n3cncn3)C2)c1", "stereo": "centres unmarked", "percent effect": 17.73}
{"structure": "COc1cc(NC(=O)c2ccc(F)cc2Cl)c(C(=O)N(C)C)cc1OC", "percent effect": -12.25}
{"structure": "[H][C@@]12CS(=O)(=O)C[C@]1([H])N(Cc1ccc(CC)cc1)CCN2CCOC", "percent effect": 8.049}
{"structure": "COc1cccc2c1ccn2CCC(=O)N1CCCC(C(=O)O)C1", "stereo": "centres unmarked", "percent effect": 10.03}
{"structure": "COc1ccc(CC(=O)N2CCCC2Cn2cc(C)cn2)cc1OC", "stereo": "centres unmarked", "percent effect": "8.878 & 3.897 & 0.6031"}
{"structure": "[H][C@@]12CN(Cc3ccoc3)C[C@]1([H])OCCN2CC(=O)N(C)C", "percent effect": -5.779}
{"structure": "CC(C(=O)N(C)Cc1ccc(Br)o1)n1cccn1", "stereo": "centres unmarked", "percent effect": 0.111}
{"structure": "Cc1cc(O)nc(C2CN(CC3(O)CCOCC3)CCO2)n1", "stereo": "centres unmarked", "percent effect": 8.507}
{"structure": "Fc1ccc2c(c1)C(NCc1nnc3n1CCCCC3)CCCO2", "stereo": "centres unmarked", "percent effect": -0.9227}
{"structure": "CCC(CC)N1CCC(c2[nH]ncc2S(C)(=O)=O)C1", "stereo": "centres unmarked", "percent effect": -9.399}
{"structure": "CC(NC(=O)NCc1ccccc1F)(C(=O)O)c1ccco1", "stereo": "centres unmarked", "percent effect": -0.9874}
{"structure": "CCn1nc(CC(C)C)cc1C(=O)N1CC[C@@H](O)C1", "percent effect": 9.871}
{"structure": "Cn1cc(C(=O)N2CCN(c3ncccn3)CC2)ccc1=O", "percent effect": 10.47}
{"structure": "CCc1nc(CCNC(=O)NC2CC2)sc1C", "percent effect": -16.01}
{"structure": "CC(=O)c1ccc(C(=O)NCCCOC(C)c2ccccc2)s1", "stereo": "centres unmarked", "percent effect": -13.87}

Once more, the final 5:

| structure | percent effect |
|---|---|
| `CC(NC(=O)NCc1ccccc1F)(C(=O)O)c1ccco1` (centres unmarked) | -0.9874 |
| `CCn1nc(CC(C)C)cc1C(=O)N1CC[C@@H](O)C1` | 9.871 |
| `Cn1cc(C(=O)N2CCN(c3ncccn3)CC2)ccc1=O` | 10.47 |
| `CCc1nc(CCNC(=O)NC2CC2)sc1C` | -16.01 |
| `CC(=O)c1ccc(C(=O)NCCCOC(C)c2ccccc2)s1` (centres unmarked) | -13.87 |

Measurements from “University of Dundee, Small-Polar-MMV Screening Library” (2021), ChEMBL document CHEMBL3988442.